Data from patent US20140038203A1, “METHODS FOR DETECTING OR PREDICTING KIDNEY DISEASE” (MUSC FOUNDATION FOR RESEARCH DEVELOPMENT, priority 2012, published 2014).

Assays:
[1] = RRT study: LC-MS/MS urinary proteomics, AKI after cardiac surgery, RRT vs No RRT; parameters: species or system human; conditions: for Mean No RRT / Mean RRT: urine; for Mean No RRT: AKI patients who did not require RRT (n=6); for Mean RRT: AKI patients who required RRT (n=6)
[2] = Candidate marker selection across the three proteomic studies (FIG. 8); conditions: inventors' proteomic studies
[3] = RRT vs No RRT, positive = elevated in RRT group
[4] = direction of urinary abundance, patients who did vs did not require RRT/dialysis
[5] = patients who did vs did not require RRT/dialysis, read with the Up or Down column
[6] = direction of differential abundance, patients who did vs did not require RRT/dialysis
[7] = patients who did vs did not require RRT/dialysis

Substance | Up or Down [1, 4] | Mean Fold Change [1, 5] | Up or Down [1, 6] | Mean Fold Change [1, 7] | also measured
Complement C3: urinary protein, Uniprot P01024 | Up | 8.52 | – | – | Mean Fold Change [1, 3]: 5.68; Mean No RRT [1]: 8.82 normalized spectral counts; Mean RRT [1]: 50.09 normalized spectral counts; change of the protein in urine in AKI [2]: increased
Epidermal growth factor: 53 amino acid protein; portion of pro-EGF precursor identified as urine biomarker | – | – | – | – | change of the protein in urine in AKI [2]: decrease
Hepcidin: urinary protein mediating intracellular iron sequestration | – | – | Down | 1.093 | change of the protein in urine in AKI [2]: decrease
Metallothionein-2: urinary protein, Uniprot P02795 (+2) | Up | 22.46 | – | – | Mean Fold Change [1, 3]: 13.47; Mean No RRT [1]: 1.43 normalized spectral counts; Mean RRT [1]: 19.25 normalized spectral counts
Mucin-5B | Up | – | – | – | –
Myosin-Vb | – | – | Down | – | –
Neutrophil defensin 1: alpha defensin, urinary biomarker candidate | Up | 3.046 | – | – | –
Olfactomedin-4 | – | – | Down | 1.426 | –
Osteopontin | – | – | Down | 1.369 | –
Pancreatic secretory trypsin inhibitor (DSLGREAKCYNELNGCTKIYDPVCGTDGNTYPNECVLCFENRKRQTSILIQKSGPC; UniProt P00995 24-79, looked up) | Up | 7.234 | – | – | –
Pappalysin-2 | – | – | Down | 1.573 | –
Peptidoglycan recognition protein 1 | – | – | Down | 1.267 | –
Peptidyl-prolyl cis-trans isomerase A | Up | 2.057 | – | – | –
Plasma protease C1 inhibitor | Up | 5.904 | – | – | –
Plasminogen | Up | 5.147 | – | – | –
Platelet factor 4 | – | – | Down | 1.19 | –
Platelet glycoprotein VI | – | – | Down | 2.277 | –
Polymeric IgG receptor: urinary protein involved in the secretion of soluble IgA | – | – | Down | 1.113 | change of the protein in urine in AKI [2]: decrease
Prostate-specific antigen | Up | 2.099 | – | – | –
Prothymosin alpha | Up | 9.757 | – | – | –

Substance | Up or Down [1, 4] | Mean Fold Change [1, 5] | Up or Down [1, 6] | Mean Fold Change [1, 7] | also measured
Pyruvate kinase isozymes M1/M2 | Up | 4.25 | – | – | –
Ribonuclease pancreatic | – | – | Down | 1.075 | –
Serotransferrin: urinary protein, Uniprot P02787 | Up | 6.502 | – | – | Mean Fold Change [1, 3]: 6.502; Mean No RRT [1]: 72.61 normalized spectral counts; Mean RRT [1]: 472.14 normalized spectral counts
Submaxillary gland androgen-regulated protein 3B (QRGPRGPYPPGPLAPPQPFGPGFVPPPPPPPYGPGRIPPPPPAPYGPGIFPPPPPQP; UniProt P02814 23-79, looked up) | – | – | Down | 1.078 | –
Superoxide diamutase [Cu—Zn]: urinary protein, Uniprot P00441 | Up | 4.733 | – | – | Mean Fold Change [1, 3]: 2.367; Mean No RRT [1]: 10.10 normalized spectral counts; Mean RRT [1]: 23.91 normalized spectral counts
Tenascin-X | – | – | Down | 1.027 | –
Thioredoxin domain-containing protein 5 | Up | – | – | – | –
Thrombospondin-1 | Up | 1.823 | – | – | –
Titin | – | – | Down | 1.044 | –
Trans-Golgi network integral membrane protein 2 | Up | – | – | – | –
Transthyretin | Up | 14.52 | – | – | –
Trefoil factor 1 (EAQTETCTVAPRERQNCGFPGVTPSQCANKGCCFDDTVRGVPWCFYPNTIDVPPEEECEF; UniProt P04155 25-84, looked up) | – | – | Down | 1.71 | –
Trefoil factor 3 (EEYVGLSANQCAVPAKDRVDCGYPHVTPKECNNRGCCFDSRIPGVPWCFKPLQEAECTF; UniProt Q07654 22-80, looked up) | – | – | Down | 2.234 | –
Triosephosphate isomerase | Up | – | – | – | –
Tumor necrosis factor receptor superfamily member 12A | Up | 6.115 | – | – | –
Tyrosine-protein kinase receptor UFO | – | – | Down | 2.196 | –
Tyrosine-protein phosphatase non-receptor type substrate 1 | Up | 2.068 | – | – | –
Uromodulin: urinary protein expressed in the thick ascending limb | – | – | Down | 1.685 | change of the protein in urine in AKI [2]: decrease
V-set and immunoglobulin domain-containing protein 4 | Up | – | – | – | –
Vitronectin | Up | 1.072 | – | – | –
